# In PMC3662692:
# Chains of the proteins cited; added tags and fusions are not shown.
# UniProt Q03135: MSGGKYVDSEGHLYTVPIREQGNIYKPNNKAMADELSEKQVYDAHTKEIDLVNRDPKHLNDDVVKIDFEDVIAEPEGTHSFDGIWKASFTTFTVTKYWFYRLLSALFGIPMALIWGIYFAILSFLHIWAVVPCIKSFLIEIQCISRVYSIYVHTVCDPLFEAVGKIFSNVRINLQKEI
# UniProt P27986: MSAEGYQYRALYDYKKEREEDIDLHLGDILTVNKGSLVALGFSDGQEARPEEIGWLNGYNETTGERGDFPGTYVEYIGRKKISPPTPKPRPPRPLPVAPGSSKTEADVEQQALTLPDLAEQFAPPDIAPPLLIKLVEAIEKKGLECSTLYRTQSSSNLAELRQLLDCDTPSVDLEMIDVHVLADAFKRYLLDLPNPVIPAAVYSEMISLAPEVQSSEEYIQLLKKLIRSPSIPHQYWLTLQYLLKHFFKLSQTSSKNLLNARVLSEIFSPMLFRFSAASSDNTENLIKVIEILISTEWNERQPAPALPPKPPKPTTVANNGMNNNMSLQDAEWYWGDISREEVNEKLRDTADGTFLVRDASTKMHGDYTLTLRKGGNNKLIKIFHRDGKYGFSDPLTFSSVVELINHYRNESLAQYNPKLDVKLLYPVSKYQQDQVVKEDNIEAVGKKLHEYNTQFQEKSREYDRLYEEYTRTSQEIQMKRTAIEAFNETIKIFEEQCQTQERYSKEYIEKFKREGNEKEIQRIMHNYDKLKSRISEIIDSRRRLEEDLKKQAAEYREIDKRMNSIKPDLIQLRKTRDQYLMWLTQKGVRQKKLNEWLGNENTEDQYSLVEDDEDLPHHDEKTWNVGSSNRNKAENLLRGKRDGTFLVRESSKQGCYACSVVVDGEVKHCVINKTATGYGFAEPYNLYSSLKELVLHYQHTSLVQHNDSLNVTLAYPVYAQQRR
# Read-outs that look alike come from different tables or passages of the source. Results are given in words; binding and its absence hold for the method and conditions named. Binding seen in cells or lysates may run through a third protein. Some entries that bind do so weakly or less than the wild type.
# Assays:
# [1] = biological target: caveolin-1 (human (endogenous in Chang cells)) (UniProt Q03135); test: co-IP; endogenous Cav1 precipitated with anti-Caveolin antibody (BD Transduction) and Protein G magnetic beads from Chang cell lysates (20 mM Tris, 150 mM NaCl, 1% Triton-X-100, pH 7.5); cells not infected or infected with N927 (PorBIA, P-) at MOI 20 for 1 h; in one experiment PLCγ1 inhibitor U73122 (10 µM) added 30 min before infection; Western blot
# [2] = biological target: caveolin-1 (human (endogenous in Chang cells)) (UniProt Q03135); test: as above; remark: listed apart in the source
Molecule,binding [1],binding [2]
"p85 regulatory subunit of phosphoinositide 3-kinase (PI3K, regulatory subunit p85α) (from UniProt P27986 1-724)",binds,–
"phospholipase Cγ1 (enzyme, UniProt P19174 1-1290) MAGAASPCANGCGPGAPSDAEVLHLCRSLEVGTVMTLFYSKKSQRPERKTFQVKLETRQITWSRGADKIEGAIDIREIKEIRPGKTSRDFDRYQEDPAFRPDQSHCFVILYGMEFRLKTLSLQATSEDEVNMWIKGLTWLMEDTLQAPTPLQIERWLRKQFYSVDRNREDRISAKDLKNMLSQVNYRVPNMRFLRERLTDLEQRSGDITYGQFAQLYRSLMYSAQKTMDLPFLEASTLRAGERPELCRVSLPEFQQFLLDYQGELWAVDRLQVQEFMLSFLRDPLREIEEPYFFLDEFVTFLFSKENSVWNSQLDAVCPDTMNNPLSHYWISSSHNTYLTGDQFSSESSLEAYARCLRMGCRCIELDCWDGPDGMPVIYHGHTLTTKIKFSDVLHTIKEHAFVASEYPVILSIEDHCSIAQQRNMAQYFKKVLGDTLLTKPVEISADGLPSPNQLKRKILIKHKKLAEGSAYEEVPTSMMYSENDISNSIKNGILYLEDPVNHEWYPHYFVLTSSKIYYSEETSSDQGNEDEEEPKEVSSSTELHSNEKWFHGKLGAGRDGRHIAERLLTEYCIETGAPDGSFLVRESETFVGDYTLSFWRNGKVQHCRIHSRQDAGTPKFFLTDNLVFDSLYDLITHYQQVPLRCNEFEMRLSEPVPQTNAHESKEWYHASLTRAQAEHMLMRVPRDGAFLVRKRNEPNSYAISFRAEGKIKHCRVQQEGQTVMLGNSEFDSLVDLISYYEKHPLYRKMKLRYPINEEALEKIGTAEPDYGALYEGRNPGFYVEANPMPTFKCAVKALFDYKAQREDELTFIKSAIIQNVEKQEGGWWRGDYGGKKQLWFPSNYVEEMVNPVALEPEREHLDENSPLGDLLRGVLDVPACQIAIRPEGKNNRLFVFSISMASVAHWSLDVAADSQEELQDWVKKIREVAQTADARLTEGKIMERRKKIALELSELVVYCRPVPFDEEKIGTERACYRDMSSFPETKAEKYVNKAKGKKFLQYNRLQLSRIYPKGQRLDSSNYDPLPMWICGSQLVALNFQTPDKPMQMNQALFMTGRHCGYVLQPSTMRDEAFDPFDKSSLRGLEPCAISIEVLGARHLPKNGRGIVCPFVEIEVAGAEYDSTKQKTEFVVDNGLNPVWPAKPFHFQISNPEFAFLRFVVYEEDMFSDQNFLAQATFPVKGLKTGYRAVPLKNNYSEDLELASLLIKIDIFPAKENGDLSPFSGTSLRERGSDASGQLFHGRAREGSFESRYQQPFEDFRISQEHLADHFDSRERRAPRRTRVNGDNRL",–,binds
